According to the supplement of paper PMC6078165:

Tested on: BT20
Assay: relative JC-1 red fluorescence (viability) vs pre-drug, coculture with fibroblast (fraction); higher = more viable cancer cells
Experimental: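 JC-1 labelled TNBC cells cocultured 1:1 (1,500 cells each) with CellTrace Violet stained primary or stromal fibroblasts in 384-well plates in FluoroBrite medium, treated with one of 42 anticancer drugs at 0.1, 1, 10 or 100 uM. JC-1 red fluorescence (mitochondrial integrity in cancer cells only) was read by plate reader every 8 h for 72 h. Values are normalised to each well's pre-drug value. The stock of one drug was tenfold lower, so its dose labels may be too high.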

O=NN(CCCl)C(=O)NCCCl [Carmustine]
relative JC-1 red fluorescence
Details | 8 h | 16 h | 24 h | 32 h | 40 h | 48 h | 56 h | 64 h | 72 h
0.1 µM, coculture fibroblast: C12385 | 0.925 | 0.833 | 0.804 | 0.753 | 0.699 | 0.666 | 0.642 | 0.627 | 0.619
0.1 µM, coculture fibroblast: H6013 | 0.9665 | 0.939 | 0.832 | 0.805 | 0.781 | 0.757 | 0.749 | 0.733 | 0.718
0.1 µM, coculture fibroblast: H6019 | 0.856 | 0.775 | 0.748 | 0.6773 | 0.628 | 0.608 | 0.5772 | 0.544 | 0.524
0.1 µM, coculture fibroblast: H6076 | 0.841 | 0.921 | 0.8491 | 0.8243 | 0.79094 | 0.7646 | 0.763 | 0.76 | 0.746
0.1 µM, coculture fibroblast: H6231 | 0.747 | 0.9364 | 0.8089 | 0.734 | 0.683 | 0.636 | 0.596 | 0.569 | 0.539
0.1 µM, coculture fibroblast: HADF | 0.887 | 0.842 | 0.8472 | 0.8436 | 0.799 | 0.7436 | 0.714 | 0.69 | 0.651
0.1 µM, coculture fibroblast: HCFa | 0.946 | 0.88 | 0.82 | 0.779 | 0.72 | 0.683 | 0.654 | 0.626 | 0.58
0.1 µM, coculture fibroblast: HCPF | 0.869 | 0.9 | 0.8075 | 0.7646 | 0.7218 | 0.6929 | 0.657 | 0.643 | 0.61
0.1 µM, coculture fibroblast: HHSteC | 0.929 | 0.855 | 0.801 | 0.728 | 0.671 | 0.633 | 0.591 | 0.564 | 0.529
0.1 µM, coculture fibroblast: HMF | 0.9722 | 0.871 | 0.753 | 0.701 | 0.661 | 0.628 | 0.594 | 0.571 | 0.5434
0.1 µM, coculture fibroblast: HPFa | 0.93 | 0.891 | 0.87 | 0.769 | 0.732 | 0.678 | 0.638 | 0.604 | 0.538
0.1 µM, coculture fibroblast: HUF | 0.9007 | 0.821 | 0.761 | 0.676 | 0.617 | 0.571 | 0.544 | 0.516 | 0.501
0.1 µM, coculture fibroblast: Hs5 | 0.836 | 0.8927 | 0.836 | 0.788 | 0.749 | 0.726 | 0.699 | 0.661 | 0.616
0.1 µM, coculture fibroblast: Hs27A | 0.763 | 0.848 | 0.915 | 0.911 | 0.868 | 0.852 | 0.83 | 0.806 | 0.753
0.1 µM, coculture fibroblast: Hs343T | 0.977 | 0.882 | 0.7488 | 0.6781 | 0.63667 | 0.589 | 0.5399 | 0.5238 | 0.492
0.1 µM, coculture fibroblast: WS1 | 0.867 | 0.8 | 0.726 | 0.66 | 0.607 | 0.583 | 0.549 | 0.523 | 0.513
1 µM, coculture fibroblast: C12385 | 0.905 | 0.839 | 0.828 | 0.768 | 0.701 | 0.685 | 0.658 | 0.647 | 0.641
1 µM, coculture fibroblast: H6013 | 0.925 | 0.858 | 0.871 | 0.831 | 0.802 | 0.796 | 0.8 | 0.789 | 0.776
1 µM, coculture fibroblast: H6019 | 0.84 | 0.796 | 0.819 | 0.786 | 0.761 | 0.763 | 0.744 | 0.731 | 0.715
1 µM, coculture fibroblast: H6076 | 0.9394 | 0.8954 | 0.836 | 0.796 | 0.769 | 0.751 | 0.762 | 0.759 | 0.75
1 µM, coculture fibroblast: H6231 | 0.983 | 0.827 | 0.776 | 0.725 | 0.696 | 0.65 | 0.624 | 0.6 | 0.579
1 µM, coculture fibroblast: HADF | 0.9688 | 0.87 | 0.831 | 0.785 | 0.751 | 0.711 | 0.691 | 0.682 | 0.65
1 µM, coculture fibroblast: HCFa | 0.9206 | 0.864 | 0.833 | 0.776 | 0.736 | 0.703 | 0.682 | 0.659 | 0.624
1 µM, coculture fibroblast: HCPF | 0.949 | 0.8841 | 0.833 | 0.773 | 0.738 | 0.697 | 0.67 | 0.648 | 0.61
1 µM, coculture fibroblast: HHSteC | 0.902 | 0.87 | 0.863 | 0.781 | 0.736 | 0.701 | 0.68 | 0.658 | 0.635
1 µM, coculture fibroblast: HMF | 0.927 | 0.857 | 0.774 | 0.7221 | 0.688 | 0.636 | 0.61 | 0.587 | 0.555
1 µM, coculture fibroblast: HPFa | 0.95 | 0.873 | 0.872 | 0.788 | 0.752 | 0.703 | 0.675 | 0.631 | 0.566
1 µM, coculture fibroblast: HUF | 0.903 | 0.822 | 0.8 | 0.731 | 0.691 | 0.656 | 0.639 | 0.625 | 0.609
1 µM, coculture fibroblast: Hs5 | 0.968 | 0.907 | 0.858 | 0.8214 | 0.8001 | 0.7632 | 0.731 | 0.709 | 0.686
1 µM, coculture fibroblast: Hs27A | 0.812 | 0.932 | 0.844 | 0.825 | 0.782 | 0.762 | 0.738 | 0.707 | 0.66
1 µM, coculture fibroblast: Hs343T | 0.94 | 0.859 | 0.7721 | 0.7059 | 0.6362 | 0.5862 | 0.5417 | 0.5113 | 0.481
1 µM, coculture fibroblast: WS1 | 0.84031 | 0.7323 | 0.675 | 0.5958 | 0.5334 | 0.4962 | 0.4637 | 0.4378 | 0.4242
10 µM, coculture fibroblast: C12385 | 0.906 | 0.816 | 0.751 | 0.688 | 0.633 | 0.601 | 0.58 | 0.56 | 0.537
10 µM, coculture fibroblast: H6013 | 0.865 | 0.896 | 0.8615 | 0.8443 | 0.797 | 0.771 | 0.761 | 0.737 | 0.715
10 µM, coculture fibroblast: H6019 | 0.8793 | 0.7958 | 0.763 | 0.698 | 0.658 | 0.635 | 0.602 | 0.576 | 0.558
10 µM, coculture fibroblast: H6076 | 0.87 | 0.9403 | 0.84589 | 0.834 | 0.802 | 0.784 | 0.772 | 0.775 | 0.761
10 µM, coculture fibroblast: H6231 | 0.84 | 0.957 | 0.8295 | 0.772 | 0.711 | 0.6606 | 0.61 | 0.578 | 0.545
10 µM, coculture fibroblast: HADF | 0.8949 | 0.935 | 0.87 | 0.864 | 0.819 | 0.77 | 0.732 | 0.7 | 0.655
10 µM, coculture fibroblast: HCFa | 0.969 | 0.91 | 0.853 | 0.808 | 0.753 | 0.716 | 0.679 | 0.643 | 0.598
10 µM, coculture fibroblast: HCPF | 0.86 | 0.931 | 0.82 | 0.759 | 0.708 | 0.668 | 0.621 | 0.5944 | 0.5547
10 µM, coculture fibroblast: HHSteC | 0.951 | 0.864 | 0.841 | 0.772 | 0.718 | 0.679 | 0.651 | 0.623 | 0.589
10 µM, coculture fibroblast: HMF | 0.928 | 0.901 | 0.822 | 0.781 | 0.744 | 0.699 | 0.67 | 0.636 | 0.604
10 µM, coculture fibroblast: HPFa | 0.926 | 0.785 | 0.844 | 0.799 | 0.78 | 0.759 | 0.786 | 0.743 | 0.674
10 µM, coculture fibroblast: HUF | 0.953 | 0.853 | 0.807 | 0.718 | 0.651 | 0.605 | 0.581 | 0.561 | 0.547
10 µM, coculture fibroblast: Hs5 | 0.83 | 0.9128 | 0.8356 | 0.7883 | 0.735 | 0.699 | 0.658 | 0.625 | 0.585
10 µM, coculture fibroblast: Hs27A | 0.7859 | 0.779 | 0.9394 | 0.958 | 0.91 | 0.902 | 0.868 | 0.839 | 0.774
10 µM, coculture fibroblast: Hs343T | 0.922 | 0.876 | 0.782 | 0.73 | 0.679 | 0.634 | 0.586 | 0.564 | 0.522
10 µM, coculture fibroblast: WS1 | 0.879 | 0.8 | 0.695 | 0.615 | 0.5464 | 0.504 | 0.4635 | 0.4226 | 0.3935
100 µM, coculture fibroblast: C12385 | 0.86 | 0.81 | 0.814 | 0.771 | 0.718 | 0.697 | 0.669 | 0.65 | 0.629
100 µM, coculture fibroblast: H6013 | 0.962 | 0.854 | 0.871 | 0.836 | 0.854 | 0.797 | 0.828 | 0.807 | 0.825
100 µM, coculture fibroblast: H6019 | 0.853 | 0.806 | 0.809 | 0.751 | 0.708 | 0.701 | 0.667 | 0.648 | 0.629
100 µM, coculture fibroblast: H6076 | 0.9526 | 0.906 | 0.869 | 0.852 | 0.854 | 0.854 | 0.88 | 0.802 | 0.761
100 µM, coculture fibroblast: H6231 | 0.946 | 0.864 | 0.784 | 0.737 | 0.7019 | 0.667 | 0.648 | 0.63 | 0.619
100 µM, coculture fibroblast: HADF | 0.9387 | 0.898 | 0.887 | 0.845 | 0.827 | 0.823 | 0.817 | 0.829 | 0.802
100 µM, coculture fibroblast: HCFa | 0.9585 | 0.896 | 0.826 | 0.877 | 0.856 | 0.858 | 0.855 | 0.883 | 0.799
100 µM, coculture fibroblast: HCPF | 0.975 | 0.9 | 0.825 | 0.773 | 0.741 | 0.705 | 0.677 | 0.657 | 0.622
100 µM, coculture fibroblast: HHSteC | 0.9264 | 0.904 | 0.905 | 0.835 | 0.814 | 0.795 | 0.791 | 0.773 | 0.753
100 µM, coculture fibroblast: HMF | 0.98 | 0.866 | 0.7443 | 0.6812 | 0.626 | 0.584 | 0.555 | 0.532 | 0.495
100 µM, coculture fibroblast: HPFa | 0.9016 | 0.867 | 0.8534 | 0.787 | 0.7609 | 0.7252 | 0.716 | 0.696 | 0.657
100 µM, coculture fibroblast: HUF | 0.882 | 0.812 | 0.791 | 0.713 | 0.669 | 0.639 | 0.632 | 0.63 | 0.622
100 µM, coculture fibroblast: Hs5 | 0.97666 | 0.914 | 0.87 | 0.831 | 0.811 | 0.788 | 0.784 | 0.777 | 0.765
100 µM, coculture fibroblast: Hs27A | 0.79 | 0.974 | 0.956 | 0.906 | 0.872 | 0.881 | 0.87 | 0.868 | 0.823
100 µM, coculture fibroblast: Hs343T | 0.948 | 0.895 | 0.776 | 0.7 | 0.635 | 0.5755 | 0.518 | 0.479 | 0.427
100 µM, coculture fibroblast: WS1 | 0.837 | 0.778 | 0.74 | 0.669 | 0.61 | 0.582 | 0.549 | 0.522 | 0.506

The reference is the same well before dosing, and untreated signal decays as well.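 Fibroblast labels denote human fibroblasts, mainly primary ones from uterus (C12385, HUF), lung (H6013), bone (Hs27A), adrenal (HADF) and skin (WS1), plus mammary HMF and breast cancer-associated Hs343T. Cancer cells are basal-like or mesenchymal-like triple-negative breast cancer lines. A hit is a response shift exceeding 3x replicate standard deviation. The tissue of the other fibroblasts is not given here.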
